From publication PMC11102138
No constants are given. Whether binding was seen depends on the method and setting. Binding seen in cells or lysates may run through a third protein. Here binding means that the protein was enriched with, or labelled near, the bait; the list need not be complete.

The chains behind the UniProt entries cited, without tags or fusion partners. Residues count along the entry.
UniProt Q08857: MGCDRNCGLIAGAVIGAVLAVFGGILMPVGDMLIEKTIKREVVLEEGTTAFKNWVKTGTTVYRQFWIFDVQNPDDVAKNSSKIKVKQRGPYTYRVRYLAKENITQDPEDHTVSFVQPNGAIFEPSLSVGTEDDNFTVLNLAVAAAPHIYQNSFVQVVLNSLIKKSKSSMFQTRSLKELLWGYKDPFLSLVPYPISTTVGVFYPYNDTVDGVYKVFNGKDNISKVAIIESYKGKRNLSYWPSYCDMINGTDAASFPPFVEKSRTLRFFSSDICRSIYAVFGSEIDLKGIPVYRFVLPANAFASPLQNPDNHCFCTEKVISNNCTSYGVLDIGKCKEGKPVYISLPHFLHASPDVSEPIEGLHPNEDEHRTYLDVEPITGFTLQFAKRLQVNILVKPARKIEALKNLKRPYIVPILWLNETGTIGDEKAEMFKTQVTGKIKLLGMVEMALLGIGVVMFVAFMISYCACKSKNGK
UniProt Q61316: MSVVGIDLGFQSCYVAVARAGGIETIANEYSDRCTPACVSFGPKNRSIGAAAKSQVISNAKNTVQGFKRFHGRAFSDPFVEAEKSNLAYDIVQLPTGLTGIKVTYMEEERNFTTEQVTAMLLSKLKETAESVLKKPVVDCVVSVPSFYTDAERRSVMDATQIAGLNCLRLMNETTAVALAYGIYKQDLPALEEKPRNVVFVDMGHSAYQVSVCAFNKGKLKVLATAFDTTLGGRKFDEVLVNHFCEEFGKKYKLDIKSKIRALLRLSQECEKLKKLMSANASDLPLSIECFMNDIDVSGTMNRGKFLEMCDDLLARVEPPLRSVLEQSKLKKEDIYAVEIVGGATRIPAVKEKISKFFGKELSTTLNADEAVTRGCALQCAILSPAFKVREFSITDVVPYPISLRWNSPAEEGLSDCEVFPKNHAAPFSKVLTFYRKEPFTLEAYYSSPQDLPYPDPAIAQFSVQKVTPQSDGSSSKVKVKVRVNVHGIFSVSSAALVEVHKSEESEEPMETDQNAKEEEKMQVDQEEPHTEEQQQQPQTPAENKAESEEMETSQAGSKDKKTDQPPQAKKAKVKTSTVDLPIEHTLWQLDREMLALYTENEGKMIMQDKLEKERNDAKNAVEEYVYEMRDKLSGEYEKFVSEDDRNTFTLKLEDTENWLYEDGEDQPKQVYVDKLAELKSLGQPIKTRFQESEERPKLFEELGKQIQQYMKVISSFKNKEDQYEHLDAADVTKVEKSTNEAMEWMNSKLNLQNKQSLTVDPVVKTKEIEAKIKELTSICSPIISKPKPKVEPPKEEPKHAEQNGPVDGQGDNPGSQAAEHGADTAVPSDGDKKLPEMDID
UniProt P07724, residues 25-608: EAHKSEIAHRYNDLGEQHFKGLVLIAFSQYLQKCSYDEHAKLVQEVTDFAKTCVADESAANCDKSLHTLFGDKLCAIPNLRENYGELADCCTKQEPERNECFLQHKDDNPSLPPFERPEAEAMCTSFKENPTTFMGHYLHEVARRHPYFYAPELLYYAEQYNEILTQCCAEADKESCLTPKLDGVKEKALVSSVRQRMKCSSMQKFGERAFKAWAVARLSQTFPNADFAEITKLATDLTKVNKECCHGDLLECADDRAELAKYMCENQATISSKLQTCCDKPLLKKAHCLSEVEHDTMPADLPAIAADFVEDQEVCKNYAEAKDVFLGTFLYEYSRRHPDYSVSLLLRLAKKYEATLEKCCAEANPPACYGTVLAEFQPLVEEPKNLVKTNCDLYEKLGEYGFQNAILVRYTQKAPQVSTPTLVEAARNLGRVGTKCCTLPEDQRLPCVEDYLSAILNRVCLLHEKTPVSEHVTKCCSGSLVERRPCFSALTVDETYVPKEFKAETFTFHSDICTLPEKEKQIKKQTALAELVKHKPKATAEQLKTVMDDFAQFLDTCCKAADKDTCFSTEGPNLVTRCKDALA
UniProt P01942: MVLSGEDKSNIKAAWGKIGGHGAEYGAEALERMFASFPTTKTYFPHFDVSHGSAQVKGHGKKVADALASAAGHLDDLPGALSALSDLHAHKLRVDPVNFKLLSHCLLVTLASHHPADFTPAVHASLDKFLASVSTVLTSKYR
UniProt O08677, residues 21-661: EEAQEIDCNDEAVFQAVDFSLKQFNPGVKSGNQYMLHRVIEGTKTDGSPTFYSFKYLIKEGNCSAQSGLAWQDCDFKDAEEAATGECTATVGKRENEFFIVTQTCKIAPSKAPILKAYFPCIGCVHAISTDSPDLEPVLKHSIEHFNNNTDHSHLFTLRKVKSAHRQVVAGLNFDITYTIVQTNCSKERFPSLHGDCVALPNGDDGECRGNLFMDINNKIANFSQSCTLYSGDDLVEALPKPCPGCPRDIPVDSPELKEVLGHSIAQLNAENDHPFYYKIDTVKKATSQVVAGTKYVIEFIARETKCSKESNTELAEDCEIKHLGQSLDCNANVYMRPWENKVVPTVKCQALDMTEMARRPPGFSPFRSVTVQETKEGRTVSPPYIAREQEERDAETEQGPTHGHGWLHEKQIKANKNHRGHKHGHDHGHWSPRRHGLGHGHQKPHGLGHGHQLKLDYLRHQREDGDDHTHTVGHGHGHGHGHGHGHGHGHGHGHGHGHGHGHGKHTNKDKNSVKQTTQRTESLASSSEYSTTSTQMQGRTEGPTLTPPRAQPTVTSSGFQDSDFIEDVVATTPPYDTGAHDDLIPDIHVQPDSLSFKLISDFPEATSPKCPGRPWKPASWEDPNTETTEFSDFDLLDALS
UniProt Q9QX11: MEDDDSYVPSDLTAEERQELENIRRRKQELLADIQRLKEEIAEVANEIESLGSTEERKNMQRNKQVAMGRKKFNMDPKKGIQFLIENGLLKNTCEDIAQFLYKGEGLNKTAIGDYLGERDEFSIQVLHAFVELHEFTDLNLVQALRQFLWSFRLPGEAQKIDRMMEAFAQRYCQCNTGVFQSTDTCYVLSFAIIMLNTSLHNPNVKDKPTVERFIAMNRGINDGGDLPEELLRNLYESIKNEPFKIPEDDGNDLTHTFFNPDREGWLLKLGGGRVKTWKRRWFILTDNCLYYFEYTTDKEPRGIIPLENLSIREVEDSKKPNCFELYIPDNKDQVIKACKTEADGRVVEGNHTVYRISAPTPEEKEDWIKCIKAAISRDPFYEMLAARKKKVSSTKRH
UniProt Q3TFK5: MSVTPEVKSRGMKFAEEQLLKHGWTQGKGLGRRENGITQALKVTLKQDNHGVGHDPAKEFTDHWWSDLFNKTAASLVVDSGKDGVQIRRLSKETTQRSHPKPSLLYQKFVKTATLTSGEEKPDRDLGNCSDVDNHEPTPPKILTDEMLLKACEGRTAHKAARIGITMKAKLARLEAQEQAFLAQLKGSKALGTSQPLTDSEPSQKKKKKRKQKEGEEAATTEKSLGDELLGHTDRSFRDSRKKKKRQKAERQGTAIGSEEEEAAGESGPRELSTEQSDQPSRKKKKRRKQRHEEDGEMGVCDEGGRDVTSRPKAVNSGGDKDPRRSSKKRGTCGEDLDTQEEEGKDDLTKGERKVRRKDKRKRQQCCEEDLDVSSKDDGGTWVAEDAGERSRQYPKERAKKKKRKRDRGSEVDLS

B1: GC (protein, UniProt P21614 17-476)
chain: LERGRDYEKDKVCNELAMLGKEDFRSLSLILYSRKFSSSTFEQVNQLVKEVVSLTEECCAEGADPTCYDTRTSELSVKSCESDAPFPVHPGTPECCTKEGLERKLCMAALSHQPQEFPTYVEPTNDEICEAFRRDPKGFADQFLYEYSSNYGQAPLPLLVAYTKNYLSMVGSCCTSANPTVCFVKERLQMKHLSLLTTMSNRVCSQYAAYGKEKSRLSHLIKLAQKVPTANLENVLPLAEDFTEILSRCCESTSEDCMASELPEHTIKICQNLSKKNSKFEECCQENTPMNIFMCTYFMPAAEPLQLPAIKLPTGKDLCGQSTTQAMDQYTFELSRRTQVPEVFLSKVLEPTLKTLRECCDTQDSVACFSTQSPLLKRQLTSFIEKGQEMCADYSENTFTEYKKKLAERLRTKTPNTSPAELKDMVEKHSDFASKCCSINSPPLYCSSQIDAEMIDTLQS
B2: CA1 (protein, UniProt P13634 1-261)
chain: MASADWGYGSENGPDQWSKLYPIANGNNQSPIDIKTSEANHDSSLKPLSISYNPATAKEIVNVGHSFHVIFDDSSNQSVLKGGPLADSYRLTQFHFHWGNSNDHGSEHTVDGTRYSGELHLVHWNSAKYSSASEAISKADGLAILGVLMKVGPANPSLQKVLDALNSVKTKGKRAPFTNFDPSSLLPSSLDYWTYFGSLTHPPLHESVTWVICKDSISLSPEQLAQLRGLLSSAEGEPAVPVLSNHRPPQPLKGRTVRASF

molecular target: scavenger receptor CD36 (mouse (endogenous in primary B cells)) (UniProt Q08857); test: affinity purification with mass spectrometry; anti-CD36 immunoprecipitation from lysate of primary mouse B cells stimulated with 1 μM CpG; filter-aided trypsin digestion, TMT10plex labelling, LC-MS/MS; search against the human Swiss-Prot database, 1% FDR

binding, binds:
HSPA4 (from UniProt Q61316 1-841), ALB (from UniProt P07724 25-608), HBA (from UniProt P01942 1-142), KNG1 (from UniProt O08677 21-661), CYTH1 (from UniProt Q9QX11 1-398), GPATCH4 (from UniProt Q3TFK5 1-415), B1, B2
